Taken from: PubChem BioAssay AID504744 (Drosophila RNAi Screening Center, 2011)
Screen: 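Uncover factors, including feedback loops, that control dAkt activation in fly cells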 (primary screen). System: Drosophila Kc167 cells. Reagents: long dsRNA against Drosophila genes, 250 ng dsRNA per well of a 384-well plate. Duration: 3 days of knock-down, then overnight serum-free starvation before stimulation. Challenge: bovine insulin at 387 nM for 10 minutes after 12 h without serum. Detection: 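Per-well phospho-dAkt level from an in-cell fluorescent antibody stain, divided by a DNA-dye signal; log2 residuals turned into z-scores that take cell number into account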. Call rule: 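Under insulin, a gene counts as a hit if the average z-score of two replicates lies above 2.5 or below -2.5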.
The deposit covers about 23,000 reagents; below is a random part of those with a known target gene and a result. In the full data, 98 (0.43%) are marked active. 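Only hit calls are given; the phospho-dAkt signals, z-scores and hit direction were not deposited.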 The numbers tell different reagents against one gene apart. A plus sign joins genes that one reagent is predicted to hit.

no.	Target gene	reagent no.	activity call
1	CG33286	1	inactive
2	CG1847	1	inactive
3	CG12971	1	inactive
4	SF2	1	inactive
5	CG15635	1	inactive
6	CG15635	2	inactive
7	ICA69	1	inactive
8	rk	1	inactive
9	CG5727	1	inactive
10	Dek	1	inactive
11	sage	1	inactive
12	CG4297	1	inactive
13	Upf1	1	inactive
14	igl	1	inactive
15	CG8668	1	inactive
16	gish	1	inactive
17	Cmtr1	1	inactive
18	HIP + HIP-R	1	inactive
19	Cfp1	1	inactive
20	corolla	1	inactive
21	Vlet	1	inactive
22	dpr8	1	inactive
23	dpr8	2	inactive
24	dpr8	3	inactive
25	dpr8	4	inactive
26	dikar	1	inactive
27	dikar	2	inactive
28	CG8173	1	inactive
29	CG8646	1	inactive
30	Sry-beta	1	inactive
31	CG30091	1	inactive
32	ppk3	1	inactive
33	Mlc2	1	inactive
34	CG15042	1	inactive
35	CG13924	1	inactive
36	CG30184	1	inactive
37	CG10384	1	inactive
38	CG10384	2	inactive
39	Cht11	1	inactive
40	Teh1	1	inactive
41	Prosbeta5R1	1	inactive
42	lms	1	inactive
43	Sodh1	1	inactive
44	Mdr65	1	inactive
45	Pop4	1	inactive
46	CG13898	1	inactive
47	CG12446	1	inactive
48	CG15170	1	inactive
49	snama	1	inactive
50	CG17560	1	inactive
51	CG17683	1	inactive
52	fun (retired record)	1	inactive
53	CG14418	1	inactive
54	CG7011	1	inactive
55	Jon99Cii	1	inactive
56	Jon99Cii	2	inactive
57	poe	1	inactive
58	Sap130	1	inactive
59	CG10353	1	inactive
60	kl-5 (retired record)	1	inactive
61	kl-5 (retired record)	2	inactive
62	kl-5 (retired record)	3	inactive
63	kl-5 (retired record)	4	inactive
64	CG14864	1	inactive
65	CG9171	1	inactive
66	CG9171	2	inactive
67	elav	1	inactive
68	CG17549	1	inactive
69	CG1421	1	inactive
70	CG5500	1	inactive
71	Upf2	1	inactive
72	CG13084	1	inactive
73	RhoGAP54D	1	inactive
74	AIMP3	1	inactive
75	CG42262 (retired record)	1	inactive
76	CG42262 (retired record)	2	inactive
77	Bbd	1	inactive
78	CG14089	1	inactive
79	eIF3f1	1	inactive
80	dve	1	inactive
81	CG42821 + CG42822	1	inactive
82	CG42821 + CG42822	2	inactive
83	Sas-6	1	inactive
84	Arpc3B	1	inactive
85	Gar1	1	inactive
86	bw	1	inactive
87	bw	2	inactive
88	CG12420	1	inactive
89	CG16711	1	inactive
90	NK7.1	1	inactive
91	ana1	1	inactive
92	ana1	2	inactive
93	CG13293	1	inactive
94	Ank	1	inactive
95	CG15605	1	inactive
96	CG17010	1	inactive
97	CG31845 (retired record)	1	inactive
98	Mcm5	1	inactive
99	CG4374	1	inactive
100	CG4119	1	inactive
101	Sfp38D	1	inactive
102	CG14298	1	inactive
103	UGP	1	inactive
104	Catsup	1	inactive
105	Prosbeta5R2	1	inactive
106	CG13121 (retired record)	1	inactive
107	CG1136	1	inactive

9 consecutive entries from above, for reference:
no.	Target gene	reagent no.	activity call
33	Mlc2	1	inactive
34	CG15042	1	inactive
35	CG13924	1	inactive
36	CG30184	1	inactive
37	CG10384	1	inactive
38	CG10384	2	inactive
39	Cht11	1	inactive
40	Teh1	1	inactive
41	Prosbeta5R1	1	inactive
